From article PMC5389439
Read-outs that look alike come from different tables or passages of the source. No constants are given. Whether binding was seen depends on the method and setting. Binding seen in cells or lysates may run through a third protein. Some entries that bind do so weakly or less than the wild type. For some assays here: Tags and fused reporters may be left off the sequences shown. Values belong to the molecule of their own block, whether it stands above or below them.

Chains of the proteins cited; added tags and fusions are not shown. Residues count along the entry.
UniProt Q01705, residues 1744-2531: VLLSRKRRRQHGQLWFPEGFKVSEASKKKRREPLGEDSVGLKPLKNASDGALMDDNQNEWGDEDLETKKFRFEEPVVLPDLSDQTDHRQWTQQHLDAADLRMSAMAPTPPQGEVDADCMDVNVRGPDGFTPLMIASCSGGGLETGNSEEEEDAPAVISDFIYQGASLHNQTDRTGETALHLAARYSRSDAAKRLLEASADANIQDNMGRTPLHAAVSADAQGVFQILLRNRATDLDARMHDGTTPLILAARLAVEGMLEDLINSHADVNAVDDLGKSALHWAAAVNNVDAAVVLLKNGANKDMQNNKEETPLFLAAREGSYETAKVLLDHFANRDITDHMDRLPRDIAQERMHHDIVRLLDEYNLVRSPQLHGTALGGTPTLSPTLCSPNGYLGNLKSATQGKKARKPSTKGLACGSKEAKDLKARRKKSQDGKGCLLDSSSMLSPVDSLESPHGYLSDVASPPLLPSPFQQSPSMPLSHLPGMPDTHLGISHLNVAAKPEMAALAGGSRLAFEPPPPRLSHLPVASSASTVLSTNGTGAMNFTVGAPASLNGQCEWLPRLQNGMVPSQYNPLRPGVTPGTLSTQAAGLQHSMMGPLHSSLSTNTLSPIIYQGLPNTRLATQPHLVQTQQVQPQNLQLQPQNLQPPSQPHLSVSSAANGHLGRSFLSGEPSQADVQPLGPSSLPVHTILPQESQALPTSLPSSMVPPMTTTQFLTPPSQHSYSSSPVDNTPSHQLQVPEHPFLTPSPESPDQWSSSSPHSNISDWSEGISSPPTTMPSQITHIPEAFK
UniProt P31266: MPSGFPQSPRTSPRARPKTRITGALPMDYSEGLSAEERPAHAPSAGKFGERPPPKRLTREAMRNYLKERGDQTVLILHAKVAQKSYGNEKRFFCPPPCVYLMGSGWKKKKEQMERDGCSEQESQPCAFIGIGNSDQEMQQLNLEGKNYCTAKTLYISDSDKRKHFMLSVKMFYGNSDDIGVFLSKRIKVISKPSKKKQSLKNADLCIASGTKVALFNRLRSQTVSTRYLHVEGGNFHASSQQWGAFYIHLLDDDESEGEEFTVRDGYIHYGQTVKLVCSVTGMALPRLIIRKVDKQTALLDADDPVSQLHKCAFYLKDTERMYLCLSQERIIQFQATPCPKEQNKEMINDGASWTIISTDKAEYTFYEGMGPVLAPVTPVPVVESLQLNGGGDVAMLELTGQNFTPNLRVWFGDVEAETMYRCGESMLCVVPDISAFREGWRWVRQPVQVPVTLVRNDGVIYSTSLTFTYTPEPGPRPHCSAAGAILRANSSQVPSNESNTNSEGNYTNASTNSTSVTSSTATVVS
UniProt Q62296: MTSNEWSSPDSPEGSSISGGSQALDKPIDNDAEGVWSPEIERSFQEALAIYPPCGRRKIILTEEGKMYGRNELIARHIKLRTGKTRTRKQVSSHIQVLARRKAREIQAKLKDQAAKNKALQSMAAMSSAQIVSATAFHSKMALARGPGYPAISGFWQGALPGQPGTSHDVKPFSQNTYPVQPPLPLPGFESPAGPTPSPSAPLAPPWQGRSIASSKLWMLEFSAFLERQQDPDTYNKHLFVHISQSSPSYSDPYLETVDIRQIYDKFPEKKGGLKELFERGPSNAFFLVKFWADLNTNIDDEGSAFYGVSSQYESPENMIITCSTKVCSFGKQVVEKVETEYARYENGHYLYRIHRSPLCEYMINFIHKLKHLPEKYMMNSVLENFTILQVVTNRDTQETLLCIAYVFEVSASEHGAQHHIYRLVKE

Tests used:
Assay in all cases: co-IP; tagged proteins co-expressed in 293T cells; lysis buffer 10 mM HEPES pH 7.6, 250 mM NaCl, 0.1% NP40, 5 mM EDTA; IP with tag antibody and protein-G PLUS-agarose, 30 min at 4 °C; blot with tag antibodies; with or without co-expressed HA-Yap or Myc-NICD1
[1] = target: T1, SBNO1-V5 (human Strawberry Notch 1, V5-tagged) (human) (UniProt A3KN83)
T1 sequence: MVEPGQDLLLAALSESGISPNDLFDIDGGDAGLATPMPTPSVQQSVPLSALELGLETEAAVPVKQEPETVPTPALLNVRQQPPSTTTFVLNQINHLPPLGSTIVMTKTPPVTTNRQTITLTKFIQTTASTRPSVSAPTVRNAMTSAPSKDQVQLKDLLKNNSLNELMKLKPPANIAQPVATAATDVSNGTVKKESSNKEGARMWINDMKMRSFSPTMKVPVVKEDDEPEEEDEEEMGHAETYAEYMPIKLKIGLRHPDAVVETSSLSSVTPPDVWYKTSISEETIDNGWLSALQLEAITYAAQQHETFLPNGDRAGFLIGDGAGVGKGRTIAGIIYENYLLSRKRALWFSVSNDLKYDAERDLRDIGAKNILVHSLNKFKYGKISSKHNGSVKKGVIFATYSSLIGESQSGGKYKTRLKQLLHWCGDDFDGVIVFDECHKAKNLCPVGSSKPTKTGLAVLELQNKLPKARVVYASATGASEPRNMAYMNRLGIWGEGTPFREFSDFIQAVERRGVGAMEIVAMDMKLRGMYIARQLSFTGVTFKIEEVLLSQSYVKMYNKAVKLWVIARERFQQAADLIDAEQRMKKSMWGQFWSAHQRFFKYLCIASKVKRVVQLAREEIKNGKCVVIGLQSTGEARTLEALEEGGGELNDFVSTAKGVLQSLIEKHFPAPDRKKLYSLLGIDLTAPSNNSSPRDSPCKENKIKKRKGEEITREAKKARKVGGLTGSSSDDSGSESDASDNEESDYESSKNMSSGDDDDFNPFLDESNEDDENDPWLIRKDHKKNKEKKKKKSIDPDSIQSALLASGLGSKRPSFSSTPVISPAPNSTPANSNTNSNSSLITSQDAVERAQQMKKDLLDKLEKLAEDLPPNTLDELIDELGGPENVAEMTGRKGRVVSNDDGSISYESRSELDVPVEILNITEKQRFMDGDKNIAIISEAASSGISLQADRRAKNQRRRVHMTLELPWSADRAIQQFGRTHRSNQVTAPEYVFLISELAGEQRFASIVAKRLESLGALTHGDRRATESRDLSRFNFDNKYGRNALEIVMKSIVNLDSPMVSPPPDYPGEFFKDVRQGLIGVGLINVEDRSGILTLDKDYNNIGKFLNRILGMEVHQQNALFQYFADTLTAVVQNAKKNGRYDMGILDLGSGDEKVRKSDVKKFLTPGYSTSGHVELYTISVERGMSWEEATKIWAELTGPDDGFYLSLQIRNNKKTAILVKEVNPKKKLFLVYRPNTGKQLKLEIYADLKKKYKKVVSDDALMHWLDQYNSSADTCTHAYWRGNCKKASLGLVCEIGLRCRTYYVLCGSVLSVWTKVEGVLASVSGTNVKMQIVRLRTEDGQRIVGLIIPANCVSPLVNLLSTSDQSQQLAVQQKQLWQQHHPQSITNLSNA

[2] = target: Myc-mNICD1 (V1744-K2531) (mouse) (UniProt Q01705)
[3] = target: FLAG-mRbpj (mouse) (UniProt P31266)
[4] = target: FLAG-mTead4 (mouse) (UniProt Q62296)
[5] = target: FLAG-mRbpj (mouse) (UniProt P31266); remark: listed apart in the source

Molecule: FLAG-mRbpj (from UniProt P31266 1-526)
- binding [1]: binds
- binding [2]: binds

B2: SBNO1-V5 (human Strawberry Notch 1, V5-tagged) (protein, UniProt A3KN83 1-1393)
chain: MVEPGQDLLLAALSESGISPNDLFDIDGGDAGLATPMPTPSVQQSVPLSALELGLETEAAVPVKQEPETVPTPALLNVRQQPPSTTTFVLNQINHLPPLGSTIVMTKTPPVTTNRQTITLTKFIQTTASTRPSVSAPTVRNAMTSAPSKDQVQLKDLLKNNSLNELMKLKPPANIAQPVATAATDVSNGTVKKESSNKEGARMWINDMKMRSFSPTMKVPVVKEDDEPEEEDEEEMGHAETYAEYMPIKLKIGLRHPDAVVETSSLSSVTPPDVWYKTSISEETIDNGWLSALQLEAITYAAQQHETFLPNGDRAGFLIGDGAGVGKGRTIAGIIYENYLLSRKRALWFSVSNDLKYDAERDLRDIGAKNILVHSLNKFKYGKISSKHNGSVKKGVIFATYSSLIGESQSGGKYKTRLKQLLHWCGDDFDGVIVFDECHKAKNLCPVGSSKPTKTGLAVLELQNKLPKARVVYASATGASEPRNMAYMNRLGIWGEGTPFREFSDFIQAVERRGVGAMEIVAMDMKLRGMYIARQLSFTGVTFKIEEVLLSQSYVKMYNKAVKLWVIARERFQQAADLIDAEQRMKKSMWGQFWSAHQRFFKYLCIASKVKRVVQLAREEIKNGKCVVIGLQSTGEARTLEALEEGGGELNDFVSTAKGVLQSLIEKHFPAPDRKKLYSLLGIDLTAPSNNSSPRDSPCKENKIKKRKGEEITREAKKARKVGGLTGSSSDDSGSESDASDNEESDYESSKNMSSGDDDDFNPFLDESNEDDENDPWLIRKDHKKNKEKKKKKSIDPDSIQSALLASGLGSKRPSFSSTPVISPAPNSTPANSNTNSNSSLITSQDAVERAQQMKKDLLDKLEKLAEDLPPNTLDELIDELGGPENVAEMTGRKGRVVSNDDGSISYESRSELDVPVEILNITEKQRFMDGDKNIAIISEAASSGISLQADRRAKNQRRRVHMTLELPWSADRAIQQFGRTHRSNQVTAPEYVFLISELAGEQRFASIVAKRLESLGALTHGDRRATESRDLSRFNFDNKYGRNALEIVMKSIVNLDSPMVSPPPDYPGEFFKDVRQGLIGVGLINVEDRSGILTLDKDYNNIGKFLNRILGMEVHQQNALFQYFADTLTAVVQNAKKNGRYDMGILDLGSGDEKVRKSDVKKFLTPGYSTSGHVELYTISVERGMSWEEATKIWAELTGPDDGFYLSLQIRNNKKTAILVKEVNPKKKLFLVYRPNTGKQLKLEIYADLKKKYKKVVSDDALMHWLDQYNSSADTCTHAYWRGNCKKASLGLVCEIGLRCRTYYVLCGSVLSVWTKVEGVLASVSGTNVKMQIVRLRTEDGQRIVGLIIPANCVSPLVNLLSTSDQSQQLAVQQKQLWQQHHPQSITNLSNA
- binding [5]: binds

Results, then the molecule that gave them:

- binding [3]: binds
Molecule: Myc-mNICD1 (V1744-K2531) (from UniProt Q01705 1744-2531) (domain or fragment)

- binding [4]: binds weakly
B1: SBNO1-Myc (human Strawberry Notch 1, Myc-tagged) (protein, UniProt A3KN83 1-1393)
chain: MVEPGQDLLLAALSESGISPNDLFDIDGGDAGLATPMPTPSVQQSVPLSALELGLETEAAVPVKQEPETVPTPALLNVRQQPPSTTTFVLNQINHLPPLGSTIVMTKTPPVTTNRQTITLTKFIQTTASTRPSVSAPTVRNAMTSAPSKDQVQLKDLLKNNSLNELMKLKPPANIAQPVATAATDVSNGTVKKESSNKEGARMWINDMKMRSFSPTMKVPVVKEDDEPEEEDEEEMGHAETYAEYMPIKLKIGLRHPDAVVETSSLSSVTPPDVWYKTSISEETIDNGWLSALQLEAITYAAQQHETFLPNGDRAGFLIGDGAGVGKGRTIAGIIYENYLLSRKRALWFSVSNDLKYDAERDLRDIGAKNILVHSLNKFKYGKISSKHNGSVKKGVIFATYSSLIGESQSGGKYKTRLKQLLHWCGDDFDGVIVFDECHKAKNLCPVGSSKPTKTGLAVLELQNKLPKARVVYASATGASEPRNMAYMNRLGIWGEGTPFREFSDFIQAVERRGVGAMEIVAMDMKLRGMYIARQLSFTGVTFKIEEVLLSQSYVKMYNKAVKLWVIARERFQQAADLIDAEQRMKKSMWGQFWSAHQRFFKYLCIASKVKRVVQLAREEIKNGKCVVIGLQSTGEARTLEALEEGGGELNDFVSTAKGVLQSLIEKHFPAPDRKKLYSLLGIDLTAPSNNSSPRDSPCKENKIKKRKGEEITREAKKARKVGGLTGSSSDDSGSESDASDNEESDYESSKNMSSGDDDDFNPFLDESNEDDENDPWLIRKDHKKNKEKKKKKSIDPDSIQSALLASGLGSKRPSFSSTPVISPAPNSTPANSNTNSNSSLITSQDAVERAQQMKKDLLDKLEKLAEDLPPNTLDELIDELGGPENVAEMTGRKGRVVSNDDGSISYESRSELDVPVEILNITEKQRFMDGDKNIAIISEAASSGISLQADRRAKNQRRRVHMTLELPWSADRAIQQFGRTHRSNQVTAPEYVFLISELAGEQRFASIVAKRLESLGALTHGDRRATESRDLSRFNFDNKYGRNALEIVMKSIVNLDSPMVSPPPDYPGEFFKDVRQGLIGVGLINVEDRSGILTLDKDYNNIGKFLNRILGMEVHQQNALFQYFADTLTAVVQNAKKNGRYDMGILDLGSGDEKVRKSDVKKFLTPGYSTSGHVELYTISVERGMSWEEATKIWAELTGPDDGFYLSLQIRNNKKTAILVKEVNPKKKLFLVYRPNTGKQLKLEIYADLKKKYKKVVSDDALMHWLDQYNSSADTCTHAYWRGNCKKASLGLVCEIGLRCRTYYVLCGSVLSVWTKVEGVLASVSGTNVKMQIVRLRTEDGQRIVGLIIPANCVSPLVNLLSTSDQSQQLAVQQKQLWQQHHPQSITNLSNA
